Results as given in the supplement of paper PMC10849652.
Some of the results follow.

Sequences of proteins named here, by UniProt entry; tags and fusion partners are left off. A change or cut given only in a name is not applied to a line headed by its entry.
UniProt P63165, whole entry, looked up: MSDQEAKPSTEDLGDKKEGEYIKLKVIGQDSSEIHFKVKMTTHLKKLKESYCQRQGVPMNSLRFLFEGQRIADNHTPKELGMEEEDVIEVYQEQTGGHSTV
UniProt Q92804: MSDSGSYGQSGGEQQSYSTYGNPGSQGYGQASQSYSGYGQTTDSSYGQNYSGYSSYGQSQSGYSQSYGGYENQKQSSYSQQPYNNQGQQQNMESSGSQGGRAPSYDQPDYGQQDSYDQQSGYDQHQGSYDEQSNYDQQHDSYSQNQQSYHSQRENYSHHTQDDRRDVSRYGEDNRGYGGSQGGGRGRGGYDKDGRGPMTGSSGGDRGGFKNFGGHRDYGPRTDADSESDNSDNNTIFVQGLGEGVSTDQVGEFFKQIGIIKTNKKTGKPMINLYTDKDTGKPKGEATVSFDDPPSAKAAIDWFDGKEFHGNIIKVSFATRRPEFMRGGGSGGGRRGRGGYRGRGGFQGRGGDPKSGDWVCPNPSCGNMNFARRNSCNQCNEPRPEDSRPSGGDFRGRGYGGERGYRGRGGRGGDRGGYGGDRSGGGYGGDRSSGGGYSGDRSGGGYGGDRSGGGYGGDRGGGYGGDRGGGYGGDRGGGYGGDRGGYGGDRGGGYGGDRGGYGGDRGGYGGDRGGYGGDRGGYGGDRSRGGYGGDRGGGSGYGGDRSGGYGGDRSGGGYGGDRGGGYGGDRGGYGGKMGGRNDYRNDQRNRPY
UniProt Q96BW9: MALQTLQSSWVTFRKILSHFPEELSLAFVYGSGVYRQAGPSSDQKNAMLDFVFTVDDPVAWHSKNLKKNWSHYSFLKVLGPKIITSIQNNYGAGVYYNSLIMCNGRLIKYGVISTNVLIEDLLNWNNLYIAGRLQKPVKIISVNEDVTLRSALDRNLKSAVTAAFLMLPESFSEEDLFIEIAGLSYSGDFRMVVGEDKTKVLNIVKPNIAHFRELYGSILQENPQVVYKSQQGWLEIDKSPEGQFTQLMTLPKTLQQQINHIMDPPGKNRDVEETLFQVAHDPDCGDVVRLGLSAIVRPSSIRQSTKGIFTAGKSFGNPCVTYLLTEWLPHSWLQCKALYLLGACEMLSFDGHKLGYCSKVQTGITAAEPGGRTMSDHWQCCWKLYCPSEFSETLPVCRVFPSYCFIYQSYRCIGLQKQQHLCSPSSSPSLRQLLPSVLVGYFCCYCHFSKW
UniProt O15533, whole entry, looked up: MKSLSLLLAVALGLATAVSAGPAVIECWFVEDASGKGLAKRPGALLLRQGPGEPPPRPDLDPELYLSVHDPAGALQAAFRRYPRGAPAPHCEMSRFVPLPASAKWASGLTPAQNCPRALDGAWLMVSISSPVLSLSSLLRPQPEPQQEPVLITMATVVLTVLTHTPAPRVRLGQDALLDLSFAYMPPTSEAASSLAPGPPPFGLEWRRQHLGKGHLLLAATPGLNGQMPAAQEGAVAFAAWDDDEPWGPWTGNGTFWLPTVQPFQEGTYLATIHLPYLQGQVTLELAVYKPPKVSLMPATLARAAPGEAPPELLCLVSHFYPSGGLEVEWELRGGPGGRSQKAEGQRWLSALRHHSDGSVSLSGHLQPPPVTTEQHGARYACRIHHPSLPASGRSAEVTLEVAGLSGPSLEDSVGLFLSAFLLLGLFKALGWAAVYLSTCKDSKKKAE
UniProt Q6ICL3: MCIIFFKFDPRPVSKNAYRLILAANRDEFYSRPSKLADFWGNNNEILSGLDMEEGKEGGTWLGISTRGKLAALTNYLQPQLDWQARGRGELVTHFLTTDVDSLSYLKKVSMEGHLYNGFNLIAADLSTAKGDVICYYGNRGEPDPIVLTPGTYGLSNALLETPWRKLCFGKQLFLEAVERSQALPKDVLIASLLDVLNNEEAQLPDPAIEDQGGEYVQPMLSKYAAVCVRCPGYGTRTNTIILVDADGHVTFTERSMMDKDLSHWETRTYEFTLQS
UniProt Q6P1N9: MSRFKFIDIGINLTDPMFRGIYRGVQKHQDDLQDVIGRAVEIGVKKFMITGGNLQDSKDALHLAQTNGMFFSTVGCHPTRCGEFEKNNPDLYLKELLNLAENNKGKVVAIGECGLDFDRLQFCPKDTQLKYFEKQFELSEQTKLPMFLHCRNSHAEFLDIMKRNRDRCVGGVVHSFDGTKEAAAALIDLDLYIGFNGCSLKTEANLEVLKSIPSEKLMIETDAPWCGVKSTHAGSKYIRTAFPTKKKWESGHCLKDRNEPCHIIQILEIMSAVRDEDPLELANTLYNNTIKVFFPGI
UniProt Q9UNE7: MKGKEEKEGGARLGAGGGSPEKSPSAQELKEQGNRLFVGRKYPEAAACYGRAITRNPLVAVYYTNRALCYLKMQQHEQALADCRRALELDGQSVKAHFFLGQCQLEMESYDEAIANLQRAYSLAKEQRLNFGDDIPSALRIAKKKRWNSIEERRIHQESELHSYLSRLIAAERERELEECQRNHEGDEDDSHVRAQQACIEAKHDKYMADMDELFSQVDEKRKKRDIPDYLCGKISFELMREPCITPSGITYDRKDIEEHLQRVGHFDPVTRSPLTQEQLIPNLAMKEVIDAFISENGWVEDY
UniProt P08247, whole entry, looked up: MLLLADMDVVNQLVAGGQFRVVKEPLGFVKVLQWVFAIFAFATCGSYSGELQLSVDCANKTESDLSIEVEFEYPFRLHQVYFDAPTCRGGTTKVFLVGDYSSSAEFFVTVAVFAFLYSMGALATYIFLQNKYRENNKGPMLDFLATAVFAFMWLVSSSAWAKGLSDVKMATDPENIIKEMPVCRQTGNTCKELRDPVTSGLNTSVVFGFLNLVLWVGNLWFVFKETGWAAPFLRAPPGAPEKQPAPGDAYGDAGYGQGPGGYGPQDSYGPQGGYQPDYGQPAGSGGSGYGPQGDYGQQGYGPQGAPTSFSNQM
UniProt P16949: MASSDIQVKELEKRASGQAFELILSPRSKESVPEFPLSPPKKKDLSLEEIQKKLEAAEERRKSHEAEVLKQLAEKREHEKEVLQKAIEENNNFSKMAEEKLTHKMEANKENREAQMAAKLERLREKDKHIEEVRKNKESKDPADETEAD
UniProt Q12846: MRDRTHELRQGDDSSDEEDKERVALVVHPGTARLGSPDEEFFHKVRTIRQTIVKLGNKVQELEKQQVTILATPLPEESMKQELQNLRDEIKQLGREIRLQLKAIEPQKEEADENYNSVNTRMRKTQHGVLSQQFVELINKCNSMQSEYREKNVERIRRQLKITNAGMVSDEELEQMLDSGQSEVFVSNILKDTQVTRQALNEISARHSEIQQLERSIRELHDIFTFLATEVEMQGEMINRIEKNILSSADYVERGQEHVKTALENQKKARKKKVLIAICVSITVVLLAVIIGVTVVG
UniProt Q7Z7C8, whole entry, looked up: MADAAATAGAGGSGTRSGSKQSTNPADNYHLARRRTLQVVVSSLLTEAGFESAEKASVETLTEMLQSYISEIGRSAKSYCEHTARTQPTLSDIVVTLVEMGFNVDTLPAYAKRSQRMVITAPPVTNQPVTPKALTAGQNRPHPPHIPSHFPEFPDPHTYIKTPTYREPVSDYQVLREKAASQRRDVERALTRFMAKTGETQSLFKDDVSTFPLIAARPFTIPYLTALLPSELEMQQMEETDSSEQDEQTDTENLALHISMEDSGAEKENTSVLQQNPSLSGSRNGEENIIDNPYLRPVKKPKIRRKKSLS
UniProt O60506: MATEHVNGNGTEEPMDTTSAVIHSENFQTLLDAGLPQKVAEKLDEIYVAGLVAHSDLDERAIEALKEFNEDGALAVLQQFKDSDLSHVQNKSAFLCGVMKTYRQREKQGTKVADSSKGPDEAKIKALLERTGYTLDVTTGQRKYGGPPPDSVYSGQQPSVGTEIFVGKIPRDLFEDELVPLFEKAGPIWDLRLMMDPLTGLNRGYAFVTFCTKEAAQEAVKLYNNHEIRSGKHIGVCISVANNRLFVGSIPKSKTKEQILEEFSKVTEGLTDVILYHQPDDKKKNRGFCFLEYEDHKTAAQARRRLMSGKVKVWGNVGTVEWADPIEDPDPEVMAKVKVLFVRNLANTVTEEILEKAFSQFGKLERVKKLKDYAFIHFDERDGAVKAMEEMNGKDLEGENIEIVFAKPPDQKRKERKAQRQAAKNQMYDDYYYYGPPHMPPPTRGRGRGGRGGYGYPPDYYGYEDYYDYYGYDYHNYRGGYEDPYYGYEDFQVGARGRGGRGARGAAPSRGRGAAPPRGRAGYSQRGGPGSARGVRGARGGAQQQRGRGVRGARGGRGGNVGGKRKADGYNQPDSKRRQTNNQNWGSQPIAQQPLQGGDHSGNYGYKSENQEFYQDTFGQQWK
UniProt Q9P2W9: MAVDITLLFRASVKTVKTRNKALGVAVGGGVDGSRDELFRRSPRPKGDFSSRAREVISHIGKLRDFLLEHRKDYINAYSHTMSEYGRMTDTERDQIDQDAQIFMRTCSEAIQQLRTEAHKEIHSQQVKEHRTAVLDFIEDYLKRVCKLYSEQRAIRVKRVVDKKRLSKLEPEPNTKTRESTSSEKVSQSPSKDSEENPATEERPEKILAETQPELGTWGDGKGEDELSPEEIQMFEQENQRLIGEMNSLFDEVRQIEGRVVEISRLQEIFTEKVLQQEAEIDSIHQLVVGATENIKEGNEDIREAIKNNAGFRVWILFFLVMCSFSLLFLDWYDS
UniProt Q15833: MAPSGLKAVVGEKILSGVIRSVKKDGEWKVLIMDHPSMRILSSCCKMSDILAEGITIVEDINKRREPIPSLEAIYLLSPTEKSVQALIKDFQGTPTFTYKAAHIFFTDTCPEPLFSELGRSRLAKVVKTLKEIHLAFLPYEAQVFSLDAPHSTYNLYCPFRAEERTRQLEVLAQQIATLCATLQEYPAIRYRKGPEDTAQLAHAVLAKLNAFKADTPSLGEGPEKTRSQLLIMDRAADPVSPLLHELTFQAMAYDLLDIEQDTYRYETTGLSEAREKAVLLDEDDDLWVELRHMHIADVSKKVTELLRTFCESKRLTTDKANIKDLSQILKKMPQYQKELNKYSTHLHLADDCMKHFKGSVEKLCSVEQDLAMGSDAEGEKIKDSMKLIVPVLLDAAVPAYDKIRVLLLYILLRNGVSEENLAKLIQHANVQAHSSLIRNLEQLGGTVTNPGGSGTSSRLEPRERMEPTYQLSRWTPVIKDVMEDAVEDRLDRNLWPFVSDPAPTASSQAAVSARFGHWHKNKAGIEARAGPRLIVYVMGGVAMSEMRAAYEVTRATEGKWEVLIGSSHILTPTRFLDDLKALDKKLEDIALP
UniProt O15260: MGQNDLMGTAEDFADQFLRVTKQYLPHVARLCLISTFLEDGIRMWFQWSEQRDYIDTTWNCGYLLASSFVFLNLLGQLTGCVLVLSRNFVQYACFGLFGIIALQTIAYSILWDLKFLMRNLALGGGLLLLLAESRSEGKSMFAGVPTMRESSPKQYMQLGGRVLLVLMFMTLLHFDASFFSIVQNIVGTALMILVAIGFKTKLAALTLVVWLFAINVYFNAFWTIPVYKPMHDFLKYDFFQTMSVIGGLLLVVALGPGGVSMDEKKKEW
UniProt O75528: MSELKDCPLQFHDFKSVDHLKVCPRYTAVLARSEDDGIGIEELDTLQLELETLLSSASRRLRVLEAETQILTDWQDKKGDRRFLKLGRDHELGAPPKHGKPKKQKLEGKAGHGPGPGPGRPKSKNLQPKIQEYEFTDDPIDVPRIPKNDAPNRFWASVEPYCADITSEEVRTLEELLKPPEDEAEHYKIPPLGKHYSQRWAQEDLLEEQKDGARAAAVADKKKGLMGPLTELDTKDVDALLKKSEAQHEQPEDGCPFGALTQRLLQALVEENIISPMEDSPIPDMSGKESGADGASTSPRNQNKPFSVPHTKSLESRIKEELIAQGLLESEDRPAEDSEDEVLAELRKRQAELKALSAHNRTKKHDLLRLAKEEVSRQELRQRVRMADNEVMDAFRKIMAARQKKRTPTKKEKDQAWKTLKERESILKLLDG
UniProt Q8IYB8: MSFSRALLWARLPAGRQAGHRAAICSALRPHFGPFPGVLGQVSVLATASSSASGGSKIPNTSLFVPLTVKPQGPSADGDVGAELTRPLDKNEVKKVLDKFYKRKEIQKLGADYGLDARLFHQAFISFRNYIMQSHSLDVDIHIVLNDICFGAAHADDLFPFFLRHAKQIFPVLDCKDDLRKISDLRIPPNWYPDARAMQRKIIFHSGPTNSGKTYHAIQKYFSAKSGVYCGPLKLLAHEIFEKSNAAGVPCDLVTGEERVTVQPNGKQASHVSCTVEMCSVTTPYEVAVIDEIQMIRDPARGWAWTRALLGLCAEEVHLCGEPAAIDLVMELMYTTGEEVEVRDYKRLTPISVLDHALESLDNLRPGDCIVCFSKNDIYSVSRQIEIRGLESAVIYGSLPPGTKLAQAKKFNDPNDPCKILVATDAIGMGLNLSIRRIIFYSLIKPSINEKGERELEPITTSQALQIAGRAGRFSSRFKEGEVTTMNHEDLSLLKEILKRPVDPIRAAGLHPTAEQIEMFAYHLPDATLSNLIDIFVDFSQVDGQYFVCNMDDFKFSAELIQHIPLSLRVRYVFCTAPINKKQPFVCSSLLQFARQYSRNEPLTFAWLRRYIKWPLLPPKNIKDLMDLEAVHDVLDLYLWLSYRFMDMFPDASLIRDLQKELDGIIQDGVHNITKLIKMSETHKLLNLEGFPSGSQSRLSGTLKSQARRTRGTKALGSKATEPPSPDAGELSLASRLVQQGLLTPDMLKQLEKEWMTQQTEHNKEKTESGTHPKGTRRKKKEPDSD

Experiments:
Test in all cases: log2 fold change, soluble protein after heating vs DMSO (PISA); higher = thermal stabilisation; K562 cells, 10 uM, 30 min; active = over 0.2 and 3.5 SD of the protein, either way, in both replicates (recomputed)
[1] = compound: C1=CC=C(C=C1)[C@H](COC2=CC3=C(C=C2)NC(=O)N3)NC(=O)C4=CC=CN(C4=O)CC5=CC(=C(C=C5)F)F
Procedure, shortened: (§1)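 Values are thermal stability changes relative to control samples and are taken from duplicates. They are stated as log2 fold changes. Before quantification by TMTpro 16plex LC-MS/MS with equalised channel sums, K562 cells at 2×10^6 cells/mL were treated with 10 μM compound for 30 min, heated in aliquots for 3 min across 48°C-58°C, pooled, extracted in PBS with 0.5% NP-40 at 4°C, and centrifuged at 21,000xg for 90 min to give the soluble supernatant.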

[2] = compound: CC1=C(SC2=C1C(=N[C@H](C3=NN=C(N32)C)CC(=O)N)C4=CC=C(C=C4)Cl)C
Procedure, shortened: as §1

[3] = compound: CC1=C2C(=CC=C1)N=C(N(C2=O)C3=CC=CC=C3C)CN4C=NC5=C(N=CN=C54)N
Procedure, shortened: as §1

[4] = compound: Cc1sc2c(c1C)C(c1ccc(Cl)cc1)=N[C@@H](CC(=O)OC(C)(C)C)c1nnc(C)n1-2
Procedure, shortened: as §1

[5] = compound: c1ccc([C@@H]2C[C@H]2NC2CCNCC2)cc1
Procedure, shortened: as §1

Measured: log2 fold change

SUMO1 (UniProt P63165)
inactive: [1] -0.004 | [2] -0.097 | [3] -0.048 | [4] 0.231 | [5] 0.152

STX8 (UniProt Q9UNK0)
inactive: [1] 0.015 | [2] -0.062 | [3] -0.034 | [4] 0.019 | [5] 0.138

STK38 (UniProt Q15208)
inactive: [1] -0.08 | [2] 0.045 | [3] 0.055 | [4] 0.028 | [5] -0.034

STOM (UniProt P27105)
inactive: [1] 0.06 | [2] -0.019 | [3] -0.014 | [4] -0.021 | [5] 0.082

TAF15 (UniProt Q92804)
inactive: [1] 0.094 | [2] -0.088 | [3] -0.077 | [4] 0.081 | [5] 0.024

STK4 (UniProt Q13043)
inactive: [1] -0.008 | [2] 0.088 | [3] 0.057 | [4] 0.005 | [5] -0.001

2 successive entries already listed, quoted:
STK38 (UniProt Q15208)
inactive: [1] -0.08 | [2] 0.045 | [3] 0.055 | [4] 0.028 | [5] -0.034

STOM (UniProt P27105)
inactive: [1] 0.06 | [2] -0.019 | [3] -0.014 | [4] -0.021 | [5] 0.082

More records follow.

TAMM41 isoform 3 (UniProt Q96BW9)
inactive: [1] -0.012 | [2] 0.1 | [3] 0.09 | [4] -0.06 | [5] 0.001

STXBP5 (UniProt Q5T5C0)
inactive: [1] -0.011 | [2] 0.017 | [3] 0.15 | [4] -0.04 | [5] -0.027

TAPBP isoform 3 (UniProt O15533)
inactive: [1] 0.043 | [2] 0.162 | [3] -0.218 | [4] 0.015 | [5] -0.088

SYVN1 (UniProt Q86TM6)
inactive: [1] -0.011 | [2] 0.085 | [3] 0.041 | [4] -0.069 | [5] 0.011

SVBP (UniProt Q8N300)
inactive: [1] -0.062 | [2] 0.073 | [3] 0.012 | [4] -0.065 | [5] -0.013

STRIP2 (UniProt Q9ULQ0)
inactive: [1] 0.046 | [2] 0.119 | [3] 0.038 | [4] 0.053 | [5] 0.088

SULT1A1 (UniProt P50225)
inactive: [1] -0.083 | [2] 0.064 | [3] -0.021 | [4] -0.06 | [5] -0.066

TANGO2 isoform 4 (UniProt Q6ICL3)
inactive: [1] -0.036 | [2] 0.061 | [3] 0.069 | [4] -0.029 | [5] -0.024

SUB1 (UniProt P53999)
inactive: [1] -0.013 | [2] -0.004 | [3] 0.016 | [4] -0.005 | [5] 0.018

TATDN3 isoform 3 (UniProt Q17R31)
inactive: [1] 0.042 | [2] 0.002 | [3] 0.029 | [4] 0.056 | [5] 0.036

TATDN1 (UniProt Q6P1N9)
inactive: [1] -0.008 | [2] 0.002 | [3] -0.022 | [4] 0.03 | [5] 0.071

STX5 (UniProt Q13190)
inactive: [1] -0.057 | [2] 0.017 | [3] 0.045 | [4] -0.025 | [5] -0.068

SUCLG2 (UniProt Q96I99)
inactive: [1] -0.006 | [2] 0.066 | [3] 0.079 | [4] -0.031 | [5] -0.032

SZRD1 (UniProt Q7Z422)
inactive: [1] 0.018 | [2] 0.026 | [3] 0.013 | [4] 0.069 | [5] 0.059

TAGLN2 isoform 2 (UniProt P37802)
inactive: [1] -0.006 | [2] 0.042 | [3] 0.015 | [4] -0.05 | [5] -0.019

STUB1 (UniProt Q9UNE7)
inactive: [1] 0.001 | [2] -0.032 | [3] 0.019 | [4] 0.146 | [5] -0.016

SYP (UniProt P08247)
inactive: [1] 0.029 | [2] 0.095 | [3] 0.102 | [4] -0.02 | [5] 0.011

TAPT1 (UniProt Q6NXT6)
inactive: [1] 0.01 | [2] 0.043 | [3] 0.007 | [4] 0.046 | [5] -0.006

STMN1 (UniProt P16949)
inactive: [1] -0.048 | [2] 0.013 | [3] -0.005 | [4] 0.022 | [5] 0.003

SYNJ1 (UniProt O43426)
inactive: [1] 0.045 | [2] 0.002 | [3] 0.076 | [4] 0.05 | [5] 0.064

SYF2 (UniProt O95926)
inactive: [1] 0.032 | [2] 0.029 | [3] -0.077 | [4] 0.145 | [5] 0.065

TARS2 (UniProt Q9BW92)
inactive: [1] -0.018 | [2] 0.025 | [3] 0.101 | [4] -0.019 | [5] -0.023

STX4 (UniProt Q12846)
inactive: [1] -0.042 | [2] 0.017 | [3] 0.07 | [4] -0.003 | [5] -0.008

SYAP1 (UniProt Q96A49)
inactive: [1] -0.03 | [2] 0.059 | [3] 0.007 | [4] -0.009 | [5] 0.019

TACC3 (UniProt Q9Y6A5)
inactive: [1] 0.015 | [2] 0.024 | [3] 0.076 | [4] -0.001 | [5] 0.014

TACO1 (UniProt Q9BSH4)
inactive: [1] -0.013 | [2] 0.098 | [3] 0.028 | [4] -0.067 | [5] -0.034

STT3A (UniProt P46977)
inactive: [1] 0.024 | [2] -0.012 | [3] -0.025 | [4] -0.022 | [5] 0.012

TAF8 isoform 2 (UniProt Q7Z7C8)
inactive: [1] 0.012 | [2] -0.028 | [3] 0.053 | [4] -0.042 | [5] -0.029

TAF9 (UniProt Q16594)
inactive: [1] 0.046 | [2] -0.043 | [3] -0.114 | [4] 0.049 | [5] 0.019

TARBP2 (UniProt Q15633)
inactive: [1] -0.011 | [2] -0.088 | [3] -0.053 | [4] 0.153 | [5] 0.018

STK39 (UniProt Q9UEW8)
inactive: [1] -0.105 | [2] -0.015 | [3] 0.034 | [4] -0.026 | [5] -0.029

TAL1 (UniProt P17542)
inactive: [1] 0.016 | [2] -0.027 | [3] 0.044 | [4] -0.054 | [5] -0.004

STX16 isoform 2 (UniProt O14662)
inactive: [1] 0.003 | [2] 0.03 | [3] 0.033 | [4] -0.121 | [5] 0.028

SYNCRIP isoform 3 (UniProt O60506)
inactive: [1] 0.019 | [2] -0.044 | [3] -0.032 | [4] 0.147 | [5] 0.08

STX18 (UniProt Q9P2W9)
inactive: [1] -0.05 | [2] 0.016 | [3] 0.086 | [4] 0.034 | [5] -0.05

TAF10 (UniProt Q12962)
inactive: [1] 0.026 | [2] -0.051 | [3] -0.098 | [4] -0.056 | [5] 0.018

SUCLA2 (UniProt Q9P2R7)
inactive: [1] -0.029 | [2] 0.07 | [3] 0.113 | [4] -0.017 | [5] -0.044

SYNGR2 (UniProt O43760)
inactive: [1] 0.025 | [2] 0.106 | [3] 0.091 | [4] -0.041 | [5] 0.12

SYNJ2BP-COX16, A0A087WYV9
inactive: [1] 0.038 | [2] -0.022 | [3] 0.013 | [4] 0.004 | [5] 0.021

Two entries picked at random from those above, as already listed:
SYNJ2BP-COX16, A0A087WYV9
inactive: [1] 0.038 | [2] -0.022 | [3] 0.013 | [4] 0.004 | [5] 0.021

SUCLA2 (UniProt Q9P2R7)
inactive: [1] -0.029 | [2] 0.07 | [3] 0.113 | [4] -0.017 | [5] -0.044

The list continues:

STX17 (UniProt P56962)
inactive: [1] 0.03 | [2] 0.006 | [3] 0.029 | [4] 0.004 | [5] -0.058

SYNRG (UniProt Q9UMZ2)
inactive: [1] -0.009 | [2] 0.08 | [3] 0.053 | [4] 0.011 | [5] 0.009

STXBP2 isoform 3 (UniProt Q15833)
inactive: [1] -0.15 | [2] -0.05 | [3] 0.071 | [4] 0.031 | [5] -0.03

TAOK1 (UniProt Q7L7X3)
inactive: [1] 0.057 | [2] 0.095 | [3] 0.041 | [4] 0.012 | [5] 0.002

SURF4 (UniProt O15260)
inactive: [1] -0.007 | [2] -0.011 | [3] -0.052 | [4] -0.041 | [5] 0.023

STX10 (UniProt O60499)
inactive: [1] -0.122 | [2] -0.041 | [3] 0.029 | [4] -0.082 | [5] 0.037

TADA3 (UniProt O75528)
inactive: [1] -0.03 | [2] 0.016 | [3] -0.009 | [4] 0.045 | [5] 0.011

SUPV3L1 (UniProt Q8IYB8)
inactive: [1] 0.009 | [2] -0.017 | [3] 0.012 | [4] -0.009 | [5] 0.074
